Experimental data from article doi:10.1101/2022.08.31.505729.

By UniProt entry, the sequences of proteins in these tests, tags left out. Where a name states a change or a piece, a line headed by the entry shows the natural chain unless it says otherwise.
UniProt Q8RX71: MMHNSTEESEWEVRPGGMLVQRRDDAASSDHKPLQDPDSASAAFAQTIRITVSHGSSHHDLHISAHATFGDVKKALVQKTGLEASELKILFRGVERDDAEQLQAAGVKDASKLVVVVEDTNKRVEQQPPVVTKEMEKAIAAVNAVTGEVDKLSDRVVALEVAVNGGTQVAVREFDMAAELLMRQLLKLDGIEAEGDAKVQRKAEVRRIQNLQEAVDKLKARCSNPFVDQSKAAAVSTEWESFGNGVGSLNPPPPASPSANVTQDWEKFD
UniProt Q8S9J8: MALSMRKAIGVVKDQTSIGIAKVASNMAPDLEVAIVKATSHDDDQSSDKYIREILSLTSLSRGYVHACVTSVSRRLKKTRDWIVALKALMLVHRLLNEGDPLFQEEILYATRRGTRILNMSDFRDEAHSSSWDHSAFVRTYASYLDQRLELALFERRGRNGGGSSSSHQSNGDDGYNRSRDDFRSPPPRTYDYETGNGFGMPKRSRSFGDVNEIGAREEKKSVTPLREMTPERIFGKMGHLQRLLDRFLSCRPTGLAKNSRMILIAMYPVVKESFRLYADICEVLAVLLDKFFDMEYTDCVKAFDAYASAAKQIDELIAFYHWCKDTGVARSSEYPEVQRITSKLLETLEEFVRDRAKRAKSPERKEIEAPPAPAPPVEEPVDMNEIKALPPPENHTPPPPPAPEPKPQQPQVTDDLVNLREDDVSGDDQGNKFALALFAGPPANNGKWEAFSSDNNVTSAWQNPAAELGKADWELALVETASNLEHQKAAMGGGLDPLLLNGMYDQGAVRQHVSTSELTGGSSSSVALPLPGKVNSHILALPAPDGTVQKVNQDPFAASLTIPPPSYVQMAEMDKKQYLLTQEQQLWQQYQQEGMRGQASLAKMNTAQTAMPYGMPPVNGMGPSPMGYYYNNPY
UniProt Q8L7A9: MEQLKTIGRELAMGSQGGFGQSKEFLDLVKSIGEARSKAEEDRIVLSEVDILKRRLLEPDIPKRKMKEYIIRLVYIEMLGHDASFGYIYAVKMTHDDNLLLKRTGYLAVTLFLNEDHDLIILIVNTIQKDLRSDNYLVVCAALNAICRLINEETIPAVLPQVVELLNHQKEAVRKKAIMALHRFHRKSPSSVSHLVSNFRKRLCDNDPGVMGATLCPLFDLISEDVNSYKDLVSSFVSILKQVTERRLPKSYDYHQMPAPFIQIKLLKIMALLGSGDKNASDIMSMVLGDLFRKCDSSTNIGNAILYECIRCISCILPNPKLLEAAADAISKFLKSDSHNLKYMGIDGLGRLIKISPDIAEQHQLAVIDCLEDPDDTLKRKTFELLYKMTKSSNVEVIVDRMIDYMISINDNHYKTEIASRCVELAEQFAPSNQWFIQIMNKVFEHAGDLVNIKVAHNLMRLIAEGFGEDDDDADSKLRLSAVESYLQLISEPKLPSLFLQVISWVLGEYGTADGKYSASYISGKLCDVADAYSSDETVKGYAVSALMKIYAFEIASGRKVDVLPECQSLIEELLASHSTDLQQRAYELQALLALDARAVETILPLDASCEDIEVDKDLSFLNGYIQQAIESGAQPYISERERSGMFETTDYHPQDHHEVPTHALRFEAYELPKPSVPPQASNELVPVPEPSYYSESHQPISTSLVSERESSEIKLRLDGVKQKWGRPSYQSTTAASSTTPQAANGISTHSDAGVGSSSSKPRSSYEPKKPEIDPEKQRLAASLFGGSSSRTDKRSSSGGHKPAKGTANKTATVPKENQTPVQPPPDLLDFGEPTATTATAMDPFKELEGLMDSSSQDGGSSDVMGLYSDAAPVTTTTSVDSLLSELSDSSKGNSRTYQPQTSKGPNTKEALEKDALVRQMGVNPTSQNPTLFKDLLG
UniProt Q8LF20: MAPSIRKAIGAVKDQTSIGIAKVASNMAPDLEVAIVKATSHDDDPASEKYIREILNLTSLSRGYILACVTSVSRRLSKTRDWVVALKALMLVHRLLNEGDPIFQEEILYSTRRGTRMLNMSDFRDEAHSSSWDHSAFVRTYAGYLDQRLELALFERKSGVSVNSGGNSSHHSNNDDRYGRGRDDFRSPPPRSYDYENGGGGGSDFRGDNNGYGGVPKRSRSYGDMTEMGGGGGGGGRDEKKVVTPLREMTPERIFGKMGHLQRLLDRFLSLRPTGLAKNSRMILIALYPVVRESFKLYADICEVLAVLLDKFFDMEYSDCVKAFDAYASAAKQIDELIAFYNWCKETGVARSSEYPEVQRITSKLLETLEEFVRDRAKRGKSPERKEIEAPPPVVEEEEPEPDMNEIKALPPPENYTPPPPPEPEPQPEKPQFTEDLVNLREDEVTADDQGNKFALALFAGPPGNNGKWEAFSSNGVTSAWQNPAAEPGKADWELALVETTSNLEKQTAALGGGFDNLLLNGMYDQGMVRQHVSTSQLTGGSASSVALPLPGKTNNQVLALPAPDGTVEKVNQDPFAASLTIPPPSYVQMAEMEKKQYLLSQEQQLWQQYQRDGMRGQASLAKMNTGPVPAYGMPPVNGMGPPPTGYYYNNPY

Experiments:
Experiment in all cases: affinity purification with mass spectrometry
[1] = biological target: T1, AP3B (Arabidopsis thaliana) (UniProt Q9M2T1)
T1 sequence: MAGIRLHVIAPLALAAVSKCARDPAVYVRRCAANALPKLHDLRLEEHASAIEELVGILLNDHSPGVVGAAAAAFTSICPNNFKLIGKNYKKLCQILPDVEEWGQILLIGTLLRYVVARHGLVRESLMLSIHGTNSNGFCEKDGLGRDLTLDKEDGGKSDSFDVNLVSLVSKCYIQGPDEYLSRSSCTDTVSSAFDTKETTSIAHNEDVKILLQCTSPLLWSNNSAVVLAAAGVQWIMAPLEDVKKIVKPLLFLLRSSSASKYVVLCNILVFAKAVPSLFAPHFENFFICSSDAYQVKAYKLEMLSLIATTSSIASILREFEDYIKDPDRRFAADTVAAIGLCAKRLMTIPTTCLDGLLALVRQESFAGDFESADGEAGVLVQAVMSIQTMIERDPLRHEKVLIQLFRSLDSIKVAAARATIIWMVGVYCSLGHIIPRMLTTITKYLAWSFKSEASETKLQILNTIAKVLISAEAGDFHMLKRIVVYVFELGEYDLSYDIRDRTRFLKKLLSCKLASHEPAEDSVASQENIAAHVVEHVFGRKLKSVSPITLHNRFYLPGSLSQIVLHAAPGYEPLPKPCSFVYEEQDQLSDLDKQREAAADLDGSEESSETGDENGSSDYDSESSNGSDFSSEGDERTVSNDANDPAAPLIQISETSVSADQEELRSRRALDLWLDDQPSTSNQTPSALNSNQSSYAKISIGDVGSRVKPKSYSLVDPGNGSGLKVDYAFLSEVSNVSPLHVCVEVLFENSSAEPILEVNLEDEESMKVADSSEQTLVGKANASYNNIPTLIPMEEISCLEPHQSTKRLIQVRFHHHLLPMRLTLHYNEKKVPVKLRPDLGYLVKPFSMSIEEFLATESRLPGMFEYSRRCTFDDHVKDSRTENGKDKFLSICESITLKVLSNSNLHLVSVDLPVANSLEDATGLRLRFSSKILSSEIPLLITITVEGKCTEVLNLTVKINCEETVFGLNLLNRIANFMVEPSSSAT

[2] = biological target: BCL-2-ASSOCIATED ATHANOGENE4 (BAG4) (Arabidopsis thaliana) (UniProt Q8RX71)
[3] = biological target: CAP1 (Arabidopsis thaliana) (UniProt Q8S9J8)
[4] = biological target: AP5B (Arabidopsis thaliana)
[5] = biological target: T1, AP3B (Arabidopsis thaliana); remark: listed apart in the source
[6] = biological target: T2, SH3P1 (Arabidopsis thaliana) (UniProt Q9C865)
T2 sequence: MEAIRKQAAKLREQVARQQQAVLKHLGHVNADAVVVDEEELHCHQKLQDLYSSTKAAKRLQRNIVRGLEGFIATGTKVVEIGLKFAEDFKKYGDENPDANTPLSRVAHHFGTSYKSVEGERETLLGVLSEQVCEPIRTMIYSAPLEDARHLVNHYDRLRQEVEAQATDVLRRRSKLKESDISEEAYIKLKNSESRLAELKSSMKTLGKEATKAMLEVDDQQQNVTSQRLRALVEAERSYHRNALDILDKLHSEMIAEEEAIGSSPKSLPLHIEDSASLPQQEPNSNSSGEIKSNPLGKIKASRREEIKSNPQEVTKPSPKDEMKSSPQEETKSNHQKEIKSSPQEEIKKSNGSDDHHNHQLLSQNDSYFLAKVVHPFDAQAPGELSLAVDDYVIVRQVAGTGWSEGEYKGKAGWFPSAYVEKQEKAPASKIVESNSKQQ

[7] = biological target: CAP1 (Arabidopsis thaliana) (UniProt Q8S9J8); remark: listed apart in the source

## AP4E (from UniProt Q8L7A9)
[1]
  binding: binds

## ECA4 (from UniProt Q8LF20)
[2]
  binding: binds
[3]
  binding: binds

B1: SH3P2 (protein, UniProt Q8VWF1 1-368)
chain: MDAIRKQASRLREQVARQQQAVFKQFGGGGYGSGLADEAELNQHQKLEKLYISTRAAKHYQRDIVRGVEGYIVTGSKQVEIGTKLSEDSRKYGSENTCTNGNVLTRAALNYGRARAQMEKERGNMLKALGTQVAEPLRAMVLGAPLEDARHLAQRYDRMRQEAEAQATEVARRQAKARESQGNPDILMKLESAEAKLHDLKSNMTILGKEAASALASVEDQQQKLTLERLLSMVESERAYHQRVLQILDQLEGEMVSERQRIEAPSTPSSADSMPPPPSYEEANGVFASQMHDTSTDSMGYFLGEVLFPYHGVTDVELSLSTGEYVVVRKVTGSGWAEGECKGKAGWFPYGYIERRERVLASKVSEVF
[4]
  binding: binds
[5]
  binding: binds
[6]
  binding: binds
[7]
  binding: binds

Where two headings read alike, the source gives them in different places. No constants are given. Whether binding was seen depends on the method and setting. Binding seen in cells or lysates may run through a third protein. Here binding means that the protein was enriched with, or labelled near, the bait; the list need not be complete.
